This assay has as its target endogenous P300 (human (endogenous; cell line not named, all cell lines of the paper are human)) (UniProt Q09472). Description: co-IP; […]; antibody 12 h at 4°C, […].

Chains of the proteins cited; added tags and fusions are not shown.
UniProt Q09472: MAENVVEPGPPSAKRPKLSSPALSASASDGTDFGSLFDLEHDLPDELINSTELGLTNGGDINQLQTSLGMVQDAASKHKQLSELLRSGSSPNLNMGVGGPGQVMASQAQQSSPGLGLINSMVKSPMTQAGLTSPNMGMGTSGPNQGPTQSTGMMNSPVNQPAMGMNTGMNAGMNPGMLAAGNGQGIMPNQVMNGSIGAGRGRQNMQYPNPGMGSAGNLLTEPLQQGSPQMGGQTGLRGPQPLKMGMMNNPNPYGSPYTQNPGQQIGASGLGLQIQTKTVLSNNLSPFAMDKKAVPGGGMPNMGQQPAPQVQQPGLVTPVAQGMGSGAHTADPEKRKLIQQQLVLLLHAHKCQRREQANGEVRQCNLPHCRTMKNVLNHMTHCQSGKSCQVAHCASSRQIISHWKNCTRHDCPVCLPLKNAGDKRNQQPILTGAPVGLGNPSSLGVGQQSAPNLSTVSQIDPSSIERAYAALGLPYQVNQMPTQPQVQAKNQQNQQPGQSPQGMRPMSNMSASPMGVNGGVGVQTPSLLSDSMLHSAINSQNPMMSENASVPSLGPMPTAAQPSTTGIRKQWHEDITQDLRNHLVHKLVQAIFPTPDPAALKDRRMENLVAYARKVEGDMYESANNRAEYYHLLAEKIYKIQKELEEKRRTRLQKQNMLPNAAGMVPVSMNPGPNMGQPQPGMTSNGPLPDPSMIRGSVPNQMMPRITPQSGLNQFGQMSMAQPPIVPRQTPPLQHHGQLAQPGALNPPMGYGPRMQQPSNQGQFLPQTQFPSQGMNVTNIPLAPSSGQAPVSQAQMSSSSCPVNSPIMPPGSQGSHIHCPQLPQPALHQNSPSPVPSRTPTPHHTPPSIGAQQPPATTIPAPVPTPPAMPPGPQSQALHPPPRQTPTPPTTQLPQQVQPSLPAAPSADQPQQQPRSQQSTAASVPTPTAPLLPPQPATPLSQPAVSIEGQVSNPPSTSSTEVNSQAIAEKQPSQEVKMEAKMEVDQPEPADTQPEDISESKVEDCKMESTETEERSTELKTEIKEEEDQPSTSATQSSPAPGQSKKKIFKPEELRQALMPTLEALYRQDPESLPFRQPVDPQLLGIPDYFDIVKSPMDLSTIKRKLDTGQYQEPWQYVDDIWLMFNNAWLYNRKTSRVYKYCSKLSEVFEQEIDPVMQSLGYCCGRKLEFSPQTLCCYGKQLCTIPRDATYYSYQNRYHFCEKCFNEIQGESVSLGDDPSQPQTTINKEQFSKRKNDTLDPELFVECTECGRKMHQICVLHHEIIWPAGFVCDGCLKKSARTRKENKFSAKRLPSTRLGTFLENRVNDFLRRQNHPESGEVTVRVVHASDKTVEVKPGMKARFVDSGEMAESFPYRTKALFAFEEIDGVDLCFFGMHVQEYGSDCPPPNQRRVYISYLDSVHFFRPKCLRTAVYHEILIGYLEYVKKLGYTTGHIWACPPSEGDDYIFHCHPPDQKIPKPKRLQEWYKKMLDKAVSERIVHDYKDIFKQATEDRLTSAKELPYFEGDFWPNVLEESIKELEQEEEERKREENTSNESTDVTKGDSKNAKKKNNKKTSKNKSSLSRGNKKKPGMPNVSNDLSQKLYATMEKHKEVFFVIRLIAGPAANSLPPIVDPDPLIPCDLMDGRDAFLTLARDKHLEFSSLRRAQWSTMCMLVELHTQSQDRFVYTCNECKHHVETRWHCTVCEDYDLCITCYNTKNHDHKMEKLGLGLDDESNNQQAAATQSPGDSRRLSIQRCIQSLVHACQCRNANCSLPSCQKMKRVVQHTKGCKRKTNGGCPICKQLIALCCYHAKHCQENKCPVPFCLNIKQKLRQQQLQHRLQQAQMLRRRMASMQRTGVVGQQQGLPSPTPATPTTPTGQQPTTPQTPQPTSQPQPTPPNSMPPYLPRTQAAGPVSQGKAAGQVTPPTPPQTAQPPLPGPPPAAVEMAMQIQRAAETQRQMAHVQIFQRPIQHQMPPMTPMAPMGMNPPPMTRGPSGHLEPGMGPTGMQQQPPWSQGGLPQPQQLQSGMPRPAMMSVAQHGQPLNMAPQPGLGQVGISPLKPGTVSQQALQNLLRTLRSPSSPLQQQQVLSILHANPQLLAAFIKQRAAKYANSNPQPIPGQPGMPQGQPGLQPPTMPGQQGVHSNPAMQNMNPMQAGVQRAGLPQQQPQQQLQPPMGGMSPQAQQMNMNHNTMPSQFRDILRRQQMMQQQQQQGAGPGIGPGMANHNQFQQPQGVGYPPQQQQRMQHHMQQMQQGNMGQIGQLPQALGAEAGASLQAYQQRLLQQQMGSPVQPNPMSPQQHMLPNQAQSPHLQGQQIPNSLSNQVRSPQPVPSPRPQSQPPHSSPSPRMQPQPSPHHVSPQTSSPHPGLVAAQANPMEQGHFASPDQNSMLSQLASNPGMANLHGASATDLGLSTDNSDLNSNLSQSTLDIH

No constants are given. Whether binding was seen depends on the method and setting. In cells and extracts the contact can be indirect. Binding calls can cover weak binding; strength is not graded here.

For the substance “endogenous NEDD4 (from UniProt P46934-4) (enzyme)”, the binding entry is “binds”.

The values are drawn from article PMC8191996.
